# Reference: paper PMC12040169 (PLOS Biology, 2025)
# The list shows a part of the results.
# System: T1, CTL2-GFP (C. trachomatis L2/434/Bu, GFP-expressing)
# T1 construct: L2/434/Bu, GFP-expressing
# Parameters: species or system HeLa; Intracellular C. trachomatis growth in HeLa cells, bulk GFP fluorescence relative to DMSO
# Settings: bulk GFP, single well; 28.5 h, 10 µM; inhibitor
row,SMILES,% of control remaining [%]
1,O=C(c1ccc(S(=O)(=O)N2CCCC2)cc1)N1CCN(C/C=C/c2ccccc2)CC1 [CBK263587],87.1663
2,CCOC(=O)CSc1nnc(-c2ccncc2)n1-c1ccccc1 [CBK263350],100
3,CN(C)CCN1CCN(c2nc(-c3cccc4cccnc34)cnc2N)CC1 [CBK063464],130.646
4,Cc1ccc(S(=O)(=O)NCCCN2CCOCC2)cc1C [CBK262934],147.139
5,Cc1cccn2c(=O)cc(CN3CCC(n4ccnc4)CC3)nc12 [CBK305519],111.934
6,O=C(COc1nc2ccccc2s1)N1N=CCC1c1ccccc1 (stereo not shown) [CBK270188],134.947
7,CC(C)Nc1nc2cc(Cl)c(Cl)cc2nc1OCCN(C)C [CBK113419],100.134
8,CC1CN(c2cc(CO)c(F)cn2)CC2(CCOC2C)O1 (stereo not shown) [CBK304754],110.607
9,COc1ccccc1-c1cnc2[nH]c(=O)n([C@@H](C)c3ccccc3)c2n1 [CBK064717],131.765
10,Nc1ccccc1Sc1nccc(C(F)(F)F)n1 [CBK006263],99.0312
11,O=C(CN1CCOCC1)c1ccc(O)o1 [CBK019286],123.187
12,O=c1[nH]c(CSc2nnc(CCCOc3ccc(Cl)cc3Cl)o2)nc2ccccc12 [CBK268861],120.543
13,O=C(c1ccsc1NS(=O)(=O)Cc1ccccc1[N+](=O)[O-])N1CCOCC1 [CBK042294],126.209
14,CC(C)(C)OC(=O)N1CCc2[nH]nc(Nc3ccccc3)c2C1 [CBK281541],124.505
15,CC1CCN(C(C)Cn2cncc2-c2cnn(C)c2)CC1 (stereo not shown) [CBK281703],132.618
16,CC(C)(C)c1cc(C(=O)Cn2c(=N)n(Cc3ccccc3)c3ccccc32)cc(C(C)(C)C)c1O [CBK262480B],7.944
17,Cc1ccc(NC(=O)CC2SC(NC3CCCCC3)=NC2=O)c(C)c1 (stereo not shown) [CBK059500],122.55
18,CC(C)Cc1nc(Cn2cnc3c(cnn3C)c2=O)no1 [CBK306256],143.78
19,O=C(O)Cn1nnc(-c2ccc(OCc3cccc(C(F)(F)F)c3)cc2)n1 [CBK267034],158.649
20,COc1cc(C(=O)NC/C=N/O)cc(OC)c1OC [CBK015662],98.2866
21,COc1ccc2cc(C#N)c(SCC(=O)Nc3ccc(F)cc3)nc2c1 [CBK068765],100
22,COCCCN1C(=O)C(O)=C(C(=O)c2ccc(C)o2)C1c1ccc(Br)cc1 (stereo not shown) [CBK264876],129.046

# 2 consecutive records from above:
row,SMILES,% of control remaining [%]
10,Nc1ccccc1Sc1nccc(C(F)(F)F)n1 [CBK006263],99.0312
11,O=C(CN1CCOCC1)c1ccc(O)o1 [CBK019286],123.187
